From article PMC5329023
These are yes or no findings as the source states them, for the method shown. Binding can be weak; no strength is given. For some assays here: In cells and extracts the contact can be indirect.

Key:
[1] = molecular target: BdPP2CA6 (pGBKT7-BdPP2CA6) (B. distachyon); experiment: two-hybrid; yeast AH109; pGBKT7 bait and pGADT7 prey; growth on SD/-Trp-Leu-His-Ade without exogenous ABA; dilutions 1, 1/10, 1/100
[2] = molecular target: BdPP2CA6-YNE (B. distachyon); experiment: split reporter; BiFC; YNE and YCE fusions co-transformed into onion epidermal cells by biolistic method; YFP fluorescence observed 1 day after transformation

B1: AtSnRK2.3 (in pGADT7) (enzyme, UniProt Q39193 1-361)
chain: MDRAPVTTGPLDMPIMHDSDRYDFVKDIGSGNFGVARLMRDKLTKELVAVKYIERGDKIDENVQREIINHRSLRHPNIVRFKEVILTPTHLAIIMEYASGGELYERICNAGRFSEDEARFFFQQLLSGVSYCHSMQICHRDLKLENTLLDGSPAPRLKICDFGYSKSSVLHSQPKSTVGTPAYIAPEVLLRQEYDGKIADVWSCGVTLYVMLVGAYPFEDPEEPRDYRKTIQRILSVKYSIPDDIRISPECCHLISRIFVADPATRISIPEIKTHSWFLKNLPADLMNESNTGSQFQEPEQPMQSLDTIMQIISEATIPAVRNRCLDDFMTDNLDLDDDMDDFDSESEIDIDSSGEIVYAL
For B1, the binding [1] was “binds”.

B2: AtSnRK2.3-YCE (enzyme, UniProt Q39193 1-361)
chain: B1 chain
For B2, the binding [2] was “binds”.
